Data taken from ChEMBL document CHEMBL3988442, “University of Dundee, Small-Polar-MMV Screening Library” (2021).

By UniProt entry, the sequences of proteins in these tests, tags left out.
UniProt E9BF75, entry or part of it: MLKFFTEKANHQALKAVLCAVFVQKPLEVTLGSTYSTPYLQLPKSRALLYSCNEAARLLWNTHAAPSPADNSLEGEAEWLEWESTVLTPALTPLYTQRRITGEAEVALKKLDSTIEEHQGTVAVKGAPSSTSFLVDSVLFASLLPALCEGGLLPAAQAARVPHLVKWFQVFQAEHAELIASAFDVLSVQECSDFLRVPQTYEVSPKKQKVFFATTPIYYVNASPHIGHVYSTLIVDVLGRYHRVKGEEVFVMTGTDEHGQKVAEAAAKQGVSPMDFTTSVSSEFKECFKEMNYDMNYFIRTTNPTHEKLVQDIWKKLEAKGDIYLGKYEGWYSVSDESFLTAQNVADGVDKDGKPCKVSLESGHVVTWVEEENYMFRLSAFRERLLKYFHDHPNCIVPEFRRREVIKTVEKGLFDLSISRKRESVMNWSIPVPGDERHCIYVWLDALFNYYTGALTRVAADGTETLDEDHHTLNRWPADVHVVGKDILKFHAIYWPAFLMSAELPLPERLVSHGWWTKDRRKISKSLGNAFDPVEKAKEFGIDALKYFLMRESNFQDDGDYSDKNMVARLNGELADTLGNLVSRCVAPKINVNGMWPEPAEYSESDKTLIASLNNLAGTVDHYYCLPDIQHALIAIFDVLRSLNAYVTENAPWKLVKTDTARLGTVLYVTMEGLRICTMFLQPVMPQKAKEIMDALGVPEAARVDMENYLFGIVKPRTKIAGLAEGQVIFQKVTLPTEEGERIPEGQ

All values are in %.
The controls that fix the scale are not given in the record; negative values are as filed.
This is an unselected part of the compounds tested.
A dash means the value is not listed here; it may have been measured.

A: 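Primary screen of methionyl-tRNA synthetase; the read-out is not stated. Target: Methionyl-tRNA synthetase (putative), Leishmania donovani (UniProt E9BF75). The test concentration is not given. Values are per cent inhibition. Size under these conditions: about 68,000 compounds, about 24 of them at 50% or above in at least one test.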
B: 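Assay on Mycobacterium tuberculosis, filed only as a heat shock assay from Cornell; the read-out is not stated. The concentration is filed as 10 mM, unlikely as a test dose, so the dose is not known. Direction is inferred from retests: higher values go with stronger inhibition. Of about 69,000 compounds tested this way, about 930 (1.4%) reached 50% or more in at least one test.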

| # | compound | A | B |
|---|---|---|---|
| 1 | `CCC[C@H]1CN(Cc2ccccc2C#N)C[C@@H]1NS(C)(=O)=O` | 10.42 | -13.17 |
| 2 | `CCn1cc2c(n1)CN(Cc1cnn(C)c1)CC2COCC1CC1` (centres undefined) | 18.1 | - |
| 3 | `Cc1nc(CN(C)C2CCN(Cc3sc(C)nc3C)C2)no1` (centres undefined) | 13.39 | -19.87 |
| 4 | `CC(NC(=O)Cn1ccc(=O)n(C)c1=O)c1cc(F)ccc1F` (centres undefined) | 21.31 | -2.176 |
| 5 | `O=C(O)C(F)(F)F.[H][C@@]12CCCO[C@]1([H])[C@@H](OCc1cccnc1)CN2C(=O)c1occc1C` | - | -24.06 |
| 6 | `Cc1ccc2c(n1)N(CC(C)C)CCN(S(C)(=O)=O)C2` | 1.333 | - |
| 7 | `Cc1cnn(CC2CN(Cc3cccc(OCC(N)=O)c3)CCO2)c1` (centres undefined) | 9.312 | -33.54 |
| 8 | `CN1CCC(c2n[nH]cc2-c2ccnc(N)c2)C1` (centres undefined) | 9.006 | 1.474 |
| 9 | `Cn1cccc1C(=O)N1CCCCC12CC(=O)N(c1cccnc1)C2.O=C(O)C(F)(F)F` (centres undefined) | - | -16.46 |
| 10 | `CC(Cn1cncn1)NCCN1CCc2ccccc21` (centres undefined) | 4.326 | -24.42 |
| 11 | `Cc1cnn(C2CN(CC(=O)NCc3ccccn3)C2)c1` | 18.11 | 43.69 |
| 12 | `COCCn1c(C(=O)NCC(C)C(=O)O)cc2ccccc21` (centres undefined) | 4.11 | 13.1 |
| 13 | `CC(C)Cn1cncc1CNC(=O)c1cccc(Cn2cccn2)c1` | 14.29 | -27.26 |
| 14 | `COCCN(CCOC)S(=O)(=O)N(C)Cc1ccncc1` | 8.011 | -12.55 |
| 15 | `CC(C)NC(=O)C1CN(C(=O)Cc2cccc(F)c2)CC12CCOCC2` (centres undefined) | 12.39 | -5.902 |
| 16 | `OCCN(Cc1ccccc1)Cc1nc(-c2ccc3c(c2)OCO3)no1` | -2.151 | 7.705 |
| 17 | `CC(c1nc(C2CC2)no1)N1CCN(CCn2ccccc2=O)CC1` (centres undefined) | 15.07 | -5.303 |
| 18 | `COCCNC(=O)CSc1nnc(OC(C)C)s1` | 5.966 | -1.494 |
| 19 | `O=C(O)C(F)(F)F.O=C(c1cnccn1)N1CCOC2(CCN(Cc3ccsc3)CC2)C1` | - | 5.138 |
| 20 | `Cc1nnc(CN(C)CCc2nc(-c3cccc(Cl)c3)no2)n1C` | 13.04 | -8.361 |
| 21 | `[H][C@]12CN(Cc3ccccc3CC)CC[C@@]1(O)CCN(S(=O)(=O)N(C)C)C2` | - | 8.9 |
| 22 | `COc1cc(CN(CCCN(C)C)Cc2ccccn2)cc2c1OCO2.O=C(O)CC(O)(CC(=O)O)C(=O)O` | - | -27.2 |
| 23 | `COc1cc(NC(=O)NC(C2CC2)C2CC2)ccc1N1CCOC1=O` | 13.25 | 14.85 |
| 24 | `COCc1cn(CC2CCN(Cc3c(C)[nH]c4ccccc34)CC2)nn1` | 15.4 | -2.684 |
| 25 | `Cc1ccoc1C(=O)NCCOc1ncc(Cl)cc1Cl` | 18.39 | -30.16 |
| 26 | `Cc1cc(CNC(C)Cn2cncn2)ccc1Br` (centres undefined) | 10.18 | 3.226 |
| 27 | `CCOCC1COCCC12CCN(C(=O)C1=CCCCC1)CC2` (centres undefined) | 18.48 | -16.7 |
| 28 | `CCSc1cncc(NCc2ccc(N3CCNC(=O)C3)cc2)n1` | 20.88 | 18.75 |
| 29 | `COc1ccc(C(C)Nc2ncc(C(N)=O)cc2Cl)c(OC)c1` (centres undefined) | 12.63 | -5.461 |
| 30 | `Cc1ccccc1CN1CCC2(CC1)CN(S(=O)(=O)c1ccccc1)C2.O=C(O)C(F)(F)F` | - | -3.696 |
| 31 | `[H][C@@]12CN(S(=O)(=O)c3ccc(C#N)cc3)C[C@]1([H])OCCN2C(C)C` | - | -8.685 |
| 32 | `Cc1n[nH]c(C)c1CCNC(=O)Nc1ccc2c(c1)COC2` | 13.94 | -38.48 |
| 33 | `O=C(O)C(F)(F)F.O=C1CCCC2(CCN(C(=O)c3ccccn3)CC2)N1` | - | -5.485 |
| 34 | `Cc1ccc(NC(=O)NCCc2cnn(C)c2)c(N(C)C)n1` | 17.49 | 17.11 |
| 35 | `COc1nn(C)c2c1CCCN(C(=O)c1ccc3ccccc3n1)C2.O=C(O)C(F)(F)F` | - | -19 |
| 36 | `CC(C)(C)c1nccc(N2CCCCC2CCNS(C)(=O)=O)n1` (centres undefined) | 9.399 | -18.21 |
| 37 | `[H][C@@]12C[C@@H](c3noc(C)n3)O[C@]1([H])CN(C(=O)c1cc(C)nn1CC)C2` | - | 11.09 |
| 38 | `Cc1[nH]nc(CCC(=O)N2CCCC(OCc3cccnc3)C2)c1C` (centres undefined) | 8.889 | -14.3 |
| 39 | `[H][C@]12CC[C@]([H])(CN(S(C)(=O)=O)C1)N(CCC(=O)NCc1ccccc1F)C2` | - | -10.65 |
| 40 | `Cc1cnn(CC2CCCN2C(=O)c2cc(C)nc3[nH]nc(C)c23)c1` (centres undefined) | 16.94 | -15.26 |
| 41 | `O=C(O)C(F)(F)F.O=C(O)C(F)(F)F.[H][C@@]12CCN(c3ncc(F)cn3)C[C@]1([H])O[C@H](C(=O)NCc1cccnc1)C2` | - | 0.1229 |
| 42 | `CC(C)c1nc2n(n1)CC(NCCc1cccs1)CC2` (centres undefined) | 4.53 | -10.65 |
| 43 | `CC(=O)N1N=C(c2ccco2)OC1C(=O)NCCc1ccc(F)cc1` (centres undefined) | 15.28 | -2.796 |
| 44 | `Cc1ccc(C(=O)N2CCC3(CC2)CC(N2CCOCC2)C3)cc1.O=C(O)C(F)(F)F` | - | 4.537 |
| 45 | `c1cc(CCN2CCC(NCc3ccsc3)CC2)ccn1` | - | -15.31 |

Some entries from above, unchanged:

{"compound": "CC(C)Cn1cncc1CNC(=O)c1cccc(Cn2cccn2)c1", "A": 14.29, "B": -27.26}
{"compound": "COc1nn(C)c2c1CCCN(C(=O)c1ccc3ccccc3n1)C2.O=C(O)C(F)(F)F", "B": -19}
{"compound": "[H][C@@]12C[C@@H](c3noc(C)n3)O[C@]1([H])CN(C(=O)c1cc(C)nn1CC)C2", "B": 11.09}
{"compound": "Cc1cnn(CC2CN(Cc3cccc(OCC(N)=O)c3)CCO2)c1", "stereo": "centres undefined", "A": 9.312, "B": -33.54}
{"compound": "CC(=O)N1N=C(c2ccco2)OC1C(=O)NCCc1ccc(F)cc1", "stereo": "centres undefined", "A": 15.28, "B": -2.796}